Measurements: article PMC7702011
Results are given in words; binding and its absence hold for the method and conditions named. Binding seen in cells or lysates may run through a third protein. A result given as binding can be weak or reduced; the word gives no strength.

Target: Np65-EGFP
Assay: co-IP; HeLa cells co-transfected with Np65-EGFP and MANF vectors, treated with or without thapsigargin or LPS; lysates immunoprecipitated with anti-GFP antibody, immunoblot

binding: binds
B1: MANF expressed from a vector in HeLa cells (protein, UniProt P55145 25-182)
chain: LRPGDCEVCISYLGRFYQDLKDRDVTFSPATIENELIKFCREARGKENRLCYYIGATDDAATKIINEVSKPLAHHIPVEKICEKLKKKDSQICELKYDKQIDLSTVDLKKLRVKELKKILDDWGETCKGCAEKSDYIRKINELMPKYAPKAASARTDL
